Results of single-concentration screens

Source: ChEMBL document CHEMBL3988442, “University of Dundee, Small-Polar-MMV Screening Library” (2021).

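Assay of Toxoplasma gondii numbers, read through their beta-galactosidase reporter with a colour substrate. Concentration: 50 µM. The record gives no direction; the compounds picked for IC50 retests had high values, so higher reads as fewer parasites. About 18,000 compounds were tested under these conditions; 0.94% (about 170) showed 50% or more at least once.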

Values are the deposited “Percent Effect”, in %. The controls that fix the scale are not given in the record; negative values are as filed. This is an unselected part of the compounds tested.

structure: CCN(CC(=O)NCc1ccc(Cl)s1)S(C)(=O)=O
percent effect: -12.5%

structure: NC(c1ccccc1)C1(CO)CCCC1 (stereo not shown)
percent effect: 29.45%

structure: CCOCC(=O)NCC(C)(O)c1ccsc1 (stereo not shown)
percent effect: 4.098%

structure: COC(=O)CNC(=O)C1CCCN1 (stereo not shown)
percent effect: -4.584%

structure: Cc1cc(=O)n(CCN(C)CC2CCCCO2)c(=O)[nH]1 (stereo not shown)
percent effect: 8.371%

structure: CNC(=O)NC(=O)CCN1CCc2ccccc2C1
percent effect: -1.822%

structure: FC(F)(F)c1cnc2c(c1)CNC2
percent effect: 9.997%

structure: C1COC(CN2CCCNCC2)C1 (stereo not shown)
percent effect: -4.62%

structure: COC(=O)c1cccc(NC(=O)NC[C@@H]2CCCN2)c1
percent effect: -9.766%

structure: CCN(CCS(C)(=O)=O)CC(O)c1ccc(C)cc1 (stereo not shown)
percent effect: 11.92%

structure: CN(C)c1ccc(-c2[nH][nH]c(=O)c2CCN)cc1
percent effect: -29.58%

structure: CC(=O)Nc1ccccc1CN(C)Cc1ccncc1
percent effect: 2.05%

structure: Cc1nc2ccc(C(=O)N3CC(O)C3)cc2nc1C
percent effect: -4.584%

structure: COC(=O)NC(C)C(=O)NCCCc1nc(C)cs1 (stereo not shown)
percent effect: 3.906%

structure: Brc1ccc(C2CCCN2)nc1 (stereo not shown)
percent effect: 3.612%

structure: CCC(C)NC(=O)N(CCN(C)C)CCN(C)C (stereo not shown)
percent effect: -3.688%

structure: COCC(C)NC(=O)NCc1ccc(F)cc1 (stereo not shown)
percent effect: -5.414%

structure: CCC(C)(CO)NC(=O)c1sc(COC)nc1C (stereo not shown)
percent effect: -0.6462%

structure: CCOC(=O)Cn1cnc2sc(C(N)=O)c(C)c2c1=O
percent effect: 6.61%

structure: O=C(NCC1(CO)CCC1)Nc1ccc2cn[nH]c2c1
percent effect: -7.239%

structure: Cc1nc2ccccc2c(=O)n1-c1ccccn1
percent effect: -15.91%

structure: CC(CN1CCN(c2ccccn2)CC1)NS(C)(=O)=O (stereo not shown)
percent effect: 13.73%

structure: CNCCN(C)C(=O)c1ccc(F)c(Br)c1
percent effect: 1.319%

structure: CN(C)c1cc2c(nn1)CCNC2
percent effect: -9.939%

structure: Cc1c(C(=O)Nc2ccc(F)c(C(N)=O)c2)cnn1C
percent effect: 0.4739%

structure: CCn1ncnc1C(C)NC(=O)c1cc(Cl)ccc1F (stereo not shown)
percent effect: 1.166%

structure: O=C(Cn1cnnn1)NCC1(c2ccccc2)CCC1
percent effect: -1.592%

2 of the entries, repeated:

{"structure": "O=C(NCC1(CO)CCC1)Nc1ccc2cn[nH]c2c1", "percent effect": -7.239}
{"structure": "CN(C)c1ccc(-c2[nH][nH]c(=O)c2CCN)cc1", "percent effect": -29.58}